The series in a line: Drug loading into calcium acetate liposomes (HPLC and Bartlett's phospholipid assay). The note with it: for loading and conversion (encapsulation efficiency), % of the initial amounts: 65% starting drug-to-phospholipids molar ratio; for loading and conversion (encapsulation efficiency), % of the initial amounts / final drug-to-phospholipids ratio: 70 °C, 60 min; for final drug-to-phospholipids ratio: molar ratio, ester loaded at 65%.

Results on three compounds are retold here after paper PMC12284848, “Safe and Efficient Intracellular Release of SN38 via Lysosomal-Responsive SN38‑G Loaded Liposomes” (ACS Applied Bio Materials, 2025).

In the case of `CCOC(=O)[C@H]1O[C@@H](Oc2ccc3nc4c(c(CC)c3c2)Cn2c-4cc3c(c2=O)COC(=O)[C@]3(O)CC)[C@H](O)[C@@H](O)[C@@H]1O` [SN38-G^eth], the “loading and conversion (encapsulation efficiency), % of the initial amounts” value stood at 94.9%; the final drug-to-phospholipids ratio amounted to 61.7%.

Regarding `CCc1c2c(nc3ccc(O)cc13)-c1cc3c(c(=O)n1C2)COC(=O)[C@]3(O)CC` [SN38, 7-ethyl-10-hydroxycamptothecin], for the setting “parental SN38 loaded with 20% DMSO”, the drug-to-phospholipids molar ratio amounted to 10.01%. On to `CCc1c2c(nc3ccc(O[C@@H]4O[C@H](C(=O)OC)[C@@H](O)[C@H](O)[C@H]4O)cc13)-c1cc3c(c(=O)n1C2)COC(=O)[C@]3(O)CC` [SN38-G^met], for which the “loading and conversion (encapsulation efficiency), % of the initial amounts” value came out at 89.9%; the final drug-to-phospholipids ratio was 58.6%.
